# Some of the results follow.
# B1: il10ra_site1_normal_mot_HHH_b1_05357_000000034_0001_23_39_H_._HHH_b2_04773_0001_0000200019_0000002_0_af2pred_0001 (protein)
# chain: SSSSSSEEYEEEVKELLEQAKHIEDPKELTYVLIRAFALAVRGNDPELERLVEEVAIELSSSSSS
# B2: il10ra_site1_sap_22_mot_1c3c3e46dde0d4e4be3ec3dd9add6289_0001_000000096_0001_34_50_H_._HHH_b1_02052_0001_0000100003_0000001_0_0001 (protein)
# chain: SSSSDADELYRLIKEIIERIAEGDEERVEELLKELEELAKERNNWLAKMQLKFLEELLEQLSSSS
# B3: il10ra_site1_sap_12_mot_HHH_b2_00440_af2_000000075_0001_42_56_H_._HHH_b1_03475_0001_0000400042_0000001_0_0001 (protein)
# chain: SSSSSDEQEKALELSVEAFRLALRGDKEEARKVLEEAARLAEELGDERLLEQIERMLKTLSSSSS
# B4: il10ra_site1_sap_19_mot_HHH_b1_03531_000000273_0001_41_54_H_._HHH_b1_01616_af2_0001_0000800032_0000003_0_0001 (protein)
# chain: SSSDREEFAEAALKATQLALRLNDEETLQRLWRLIKRYAKEQDPELLEELEELVKELEEKYTSSS
# B5: il10ra_site1_normal_mot_HHH_b2_04168_af2_000000050_0001_1_20_H_._HHH_b2_06044_0001_0000100016_0000001_0 (protein)
# chain: SSSSADELFRRVKELLQEAIELHKNGNPEEAEKVLQEAEELVEKAGNENTLFVIRWLLELLSSSS
# B6: il10ra_site1_sap_23_mot_HHH_b1_08629_000000017_0001_1_20_H_._HHH_b2_02587_af2_0001_0000100003_0000001_0_0001 (protein)
# chain: SSSSADERFEKVKKLLQLLIELLEEGDEEKVEEVEEELRRLIEENNDWAARWSLEHLRRAYSSSS
# B7: il10ra_site1_sap_14_mot_ems_3hM_3637_000000290_0001_1_19_H_._HHH_b1_03012_0001_0000200018_0000001_0_0001_af2pred_0001 (protein)
# chain: SSSSSDAEKAAEFLLRAARRARKLGNEEKAKLALKFAIHLAKFAGNEELLEELEKLLEELGSSSS
# B8: il10ra_site1_sap_21_mot_HHH_b1_04015_af2_000000074_0001_1_17_H_._3a8c9d8b51907fb311a13ef47c45c45e_0001_1_af2_0001_0000200008_0000001_1_0001 (protein)
# chain: SSSSDDEKFAKLIQKAVRYAFQLGDEEALQEIWELAKLYGRHGDPEVLEELHRLLEELERRSSSS
# B9: il10ra_site1_sap_16_mot_HHH_b2_07758_000000036_0001_41_55_H_._HHH_b2_03545_0001_0000200025_0000001_0_0001 (protein)
# chain: SSSSSDEEERIEELLEELEKVLEEGDTERAVRIALEAVQLAIQNGDEEALQLVWKIFQNNSSSSS
# B10: il10ra_site1_sap_23_mot_HHH_b1_00531_af2_000000024_0001_1_19_H_._HHH_b1_06468_af2_0001_0000200012_0000001_0_0001 (protein)
# chain: SSSSSELEEEAEELLEKARELIENGNPEEASRVLYEAARLAIEAGDDELWQKIIELFVRASSSSS
# B11: il10ra_site1_normal_mot_HHH_b2_00984_000000042_0001_1_20_H_._HHH_b2_02851_af2_0001_0000400020_0000002_0 (protein)
# chain: SSSSSSDLEELEEELRELIERGDREEALRVAAEAVRFAFRLGDEEALQELWELIRSLESSSSSSS
# B12: il10ra_site1_normal_mot_HHH_b2_02354_af2_000000157_0001_40_56_H_._HHH_b1_00899_af2_0001_0000400015_0000001_0 (protein)
# chain: SSSSSENLEWIFKTLEELAKQLGNPELLERIEELREEAKEKNDDRLLSEAVELVLKEARKSSSSS
# B13: il10ra_site1_normal_mot_HHH_b2_04680_000000215_0001_1_16_H_._HHH_b2_04874_af2_0001_0000300006_0000001_0 (protein)
# chain: SSSSSDTEKSREAYELLREAFHIPDEEEVEKLLEEALRLAEEANDFALAFAIRLAEQSLRSSSSS
# B14: il10ra_site1_sap_11_mot_HHH_b2_01447_af2_000000258_0001_1_20_H_._HHH_b2_06908_af2_0001_0000100001_0000002_0_0001 (protein)
# chain: SSSSNDEVYRLLQELIELVKEGDDEEFRRLYEEIERLIEELGDWVMRFSLEFLHRDFEANKSSSS
# B15: il10ra_site1_normal_mot_HHH_b1_08711_000000278_0001_1_16_H_._HHH_b1_01996_af2_0001_0000200012_0000001_0 (protein)
# chain: SSSSDEELQEALELVQRAIKLAARGDPEEARKLLEEAAELARELGDERLLRIIEELLRALSSSSS
# B16: il10ra_site1_sap_11_mot_HHH_b1_05370_000000138_0001_1_16_H_._HHH_b2_03593_0001_0000300029_0000001_0_0001_af2pred_0001 (protein)
# chain: SSSSSQELIREVRELLERARELLEEGDEEELEEILERLRELYEETGDFVVEVAVEAIERLRSSSS
# B17: il10ra_site1_normal_mot_HHH_b2_00984_000000042_0001_1_20_H_._HHH_b2_01216_af2_0001_0000100003_0000001_1 (protein)
# chain: SSSSDEEVRKLIEEAEELEERGDPRRAIEVLARASSLALQLGDAELLQEIWELIHKLKELSSSSS
# B18: il10ra_site1_normal_mot_HHH_b2_01032_000000296_0001_1_18_H_._HHH_b1_04144_af2_0001_0000100001_0000001_1 (protein)
# chain: SSSSSDERERLLELLRQAFRLALRGDPEEAREVLEEALELAEELGDERAVRQIRQVLQAQSSSSS
# Biological target: il10ra, Q13651
# Assay: yeast display titration
row,Binder,apparent Kd
1,B1,inactive: no binding seen
2,B2,inactive: no binding seen
3,B3,inactive: no binding seen
4,B4,inactive: no binding seen
5,B5,inactive: no binding seen
6,B6,inactive: no binding seen
7,B7,inactive: no binding seen
8,B8,inactive: no binding seen
9,B9,inactive: no binding seen
10,B10,inactive: no binding seen
11,B11,inactive: no binding seen
12,B12,inactive: no binding seen
13,B13,inactive: no binding seen
14,B14,inactive: no binding seen
15,B15,inactive: no binding seen
16,B16,inactive: no binding seen
17,B17,inactive: no binding seen
18,B18,inactive: no binding seen

# Exported with tabs: part of the list above.
row	Binder	apparent Kd
1	B1	inactive: no binding seen
2	B2	inactive: no binding seen
